Binding data for two molecules are collected here from article PMC9918532.

Results are given in words; binding and its absence hold for the method and conditions named. In cells and extracts the contact can be indirect. Some binding calls cover weakened binding; strength is not graded here. Sequences can lack the tags named with a protein.

Assay [1] deals with T1, HA-YTHDF2 (human) (UniProt Q9Y5A9).
T1 sequence: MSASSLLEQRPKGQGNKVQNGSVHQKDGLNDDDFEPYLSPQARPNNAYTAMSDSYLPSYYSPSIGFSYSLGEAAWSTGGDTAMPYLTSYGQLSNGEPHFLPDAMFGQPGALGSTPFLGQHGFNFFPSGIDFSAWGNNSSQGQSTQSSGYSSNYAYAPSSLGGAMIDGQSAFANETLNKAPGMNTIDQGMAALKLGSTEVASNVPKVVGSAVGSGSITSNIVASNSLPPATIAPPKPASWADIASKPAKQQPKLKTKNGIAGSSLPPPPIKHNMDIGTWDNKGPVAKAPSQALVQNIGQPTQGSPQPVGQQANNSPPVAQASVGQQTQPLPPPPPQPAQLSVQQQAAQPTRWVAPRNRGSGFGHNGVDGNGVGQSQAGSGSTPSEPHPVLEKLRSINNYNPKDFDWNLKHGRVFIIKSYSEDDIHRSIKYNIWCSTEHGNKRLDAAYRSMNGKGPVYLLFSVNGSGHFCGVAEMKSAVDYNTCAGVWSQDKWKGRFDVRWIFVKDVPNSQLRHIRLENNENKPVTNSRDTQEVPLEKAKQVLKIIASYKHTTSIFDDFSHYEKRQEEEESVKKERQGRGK
Briefly: co-IP; HEK293 cells co-transfected with HA-tagged or Flag-tagged OGT and YTHDF2 (full length, ΔC or ΔN); pre-cleared lysates with anti-HA antibody overnight at 4 °C, then protein A/G agarose beads 4 h; immunoblot. On the technique in general: Immunoblotting shows a protein as a band on a membrane.

For assay [2], the target named is T2, HA-OGT (human) (UniProt O15294).
T2 sequence: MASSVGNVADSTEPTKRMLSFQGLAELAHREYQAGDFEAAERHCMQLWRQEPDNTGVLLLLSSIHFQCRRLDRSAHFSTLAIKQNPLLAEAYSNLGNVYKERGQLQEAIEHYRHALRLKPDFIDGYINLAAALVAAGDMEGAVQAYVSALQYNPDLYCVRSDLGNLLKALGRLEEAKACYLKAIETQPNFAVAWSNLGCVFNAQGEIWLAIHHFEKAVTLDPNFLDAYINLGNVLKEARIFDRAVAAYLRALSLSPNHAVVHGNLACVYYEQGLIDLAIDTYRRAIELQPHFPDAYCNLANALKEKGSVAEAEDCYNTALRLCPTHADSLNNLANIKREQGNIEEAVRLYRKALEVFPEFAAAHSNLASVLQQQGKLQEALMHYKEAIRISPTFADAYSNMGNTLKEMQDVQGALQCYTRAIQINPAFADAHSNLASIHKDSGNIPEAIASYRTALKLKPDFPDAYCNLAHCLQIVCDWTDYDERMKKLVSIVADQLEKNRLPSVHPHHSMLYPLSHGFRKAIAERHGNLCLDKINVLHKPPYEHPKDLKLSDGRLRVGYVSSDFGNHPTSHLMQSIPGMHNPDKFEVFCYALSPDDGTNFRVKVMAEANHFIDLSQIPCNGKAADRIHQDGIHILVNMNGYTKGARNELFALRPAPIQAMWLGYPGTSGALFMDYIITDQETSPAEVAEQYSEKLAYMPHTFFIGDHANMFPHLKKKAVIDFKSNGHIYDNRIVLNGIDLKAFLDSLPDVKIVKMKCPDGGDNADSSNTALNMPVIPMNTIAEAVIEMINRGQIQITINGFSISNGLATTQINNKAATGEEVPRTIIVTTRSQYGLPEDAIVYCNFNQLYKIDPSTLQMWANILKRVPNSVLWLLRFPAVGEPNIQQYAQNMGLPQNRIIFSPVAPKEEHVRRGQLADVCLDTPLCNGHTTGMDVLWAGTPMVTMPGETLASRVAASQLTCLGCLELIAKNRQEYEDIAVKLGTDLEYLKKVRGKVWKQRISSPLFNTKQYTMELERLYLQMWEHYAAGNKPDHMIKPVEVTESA
The description is as above.

B1: Flag-OGT (enzyme, UniProt O15294-1 1-1046)
chain: MASSVGNVADSTEPTKRMLSFQGLAELAHREYQAGDFEAAERHCMQLWRQEPDNTGVLLLLSSIHFQCRRLDRSAHFSTLAIKQNPLLAEAYSNLGNVYKERGQLQEAIEHYRHALRLKPDFIDGYINLAAALVAAGDMEGAVQAYVSALQYNPDLYCVRSDLGNLLKALGRLEEAKACYLKAIETQPNFAVAWSNLGCVFNAQGEIWLAIHHFEKAVTLDPNFLDAYINLGNVLKEARIFDRAVAAYLRALSLSPNHAVVHGNLACVYYEQGLIDLAIDTYRRAIELQPHFPDAYCNLANALKEKGSVAEAEDCYNTALRLCPTHADSLNNLANIKREQGNIEEAVRLYRKALEVFPEFAAAHSNLASVLQQQGKLQEALMHYKEAIRISPTFADAYSNMGNTLKEMQDVQGALQCYTRAIQINPAFADAHSNLASIHKDSGNIPEAIASYRTALKLKPDFPDAYCNLAHCLQIVCDWTDYDERMKKLVSIVADQLEKNRLPSVHPHHSMLYPLSHGFRKAIAERHGNLCLDKINVLHKPPYEHPKDLKLSDGRLRVGYVSSDFGNHPTSHLMQSIPGMHNPDKFEVFCYALSPDDGTNFRVKVMAEANHFIDLSQIPCNGKAADRIHQDGIHILVNMNGYTKGARNELFALRPAPIQAMWLGYPGTSGALFMDYIITDQETSPAEVAEQYSEKLAYMPHTFFIGDHANMFPHLKKKAVIDFKSNGHIYDNRIVLNGIDLKAFLDSLPDVKIVKMKCPDGGDNADSSNTALNMPVIPMNTIAEAVIEMINRGQIQITINGFSISNGLATTQINNKAATGEEVPRTIIVTTRSQYGLPEDAIVYCNFNQLYKIDPSTLQMWANILKRVPNSVLWLLRFPAVGEPNIQQYAQNMGLPQNRIIFSPVAPKEEHVRRGQLADVCLDTPLCNGHTTGMDVLWAGTPMVTMPGETLASRVAASQLTCLGCLELIAKNRQEYEDIAVKLGTDLEYLKKVRGKVWKQRISSPLFNTKQYTMELERLYLQMWEHYAAGNKPDHMIKPVEVTESA
With B1, the binding entry in assay [1] was “binds”.

B2: Flag-YTHDF2 (protein, UniProt Q9Y5A9-1 1-579)
chain: MSASSLLEQRPKGQGNKVQNGSVHQKDGLNDDDFEPYLSPQARPNNAYTAMSDSYLPSYYSPSIGFSYSLGEAAWSTGGDTAMPYLTSYGQLSNGEPHFLPDAMFGQPGALGSTPFLGQHGFNFFPSGIDFSAWGNNSSQGQSTQSSGYSSNYAYAPSSLGGAMIDGQSAFANETLNKAPGMNTIDQGMAALKLGSTEVASNVPKVVGSAVGSGSITSNIVASNSLPPATIAPPKPASWADIASKPAKQQPKLKTKNGIAGSSLPPPPIKHNMDIGTWDNKGPVAKAPSQALVQNIGQPTQGSPQPVGQQANNSPPVAQASVGQQTQPLPPPPPQPAQLSVQQQAAQPTRWVAPRNRGSGFGHNGVDGNGVGQSQAGSGSTPSEPHPVLEKLRSINNYNPKDFDWNLKHGRVFIIKSYSEDDIHRSIKYNIWCSTEHGNKRLDAAYRSMNGKGPVYLLFSVNGSGHFCGVAEMKSAVDYNTCAGVWSQDKWKGRFDVRWIFVKDVPNSQLRHIRLENNENKPVTNSRDTQEVPLEKAKQVLKIIASYKHTTSIFDDFSHYEKRQEEEESVKKERQGRGK
Regarding B2, the binding entry in assay [2] is “binds”.
